# The other results are listed elsewhere or left out. Shown are side measurements of this screen, not its main read-out; they come without a call. Compounds called inactive in the main read-out are mostly missing here. Words in brackets tell the shape of the fitted curve; partial curves, single points and poor fits give uncertain potencies.
# Experiment: qHTS Assay for Modulators of Lamin A Splicing
# Details: HeLa LMNA splicing GFP/RFP minigene ratio, 48 h
# How it was run: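 Read-out is the ratio of GFP to DsRed2 object intensity, acquired by 488 nm laser-scanning cytometry on HeLa lamin A-EGFP minigene reporter cells. Compound incubation 48 hrs at 37 °C in Opti-MEM with 2% FBS; DMSO 0.5% final.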
# [1] = measured here: GFP splicing reporter channel
# [2] = measured here: RFP viability control channel
SMILES,AC50 [1],AC50 [2]
O=C(CCc1ccccc1O)N/N=C/c1ccc(Sc2cccc3cccnc23)o1,"35.5 µM [rising, single point]","35.5 µM [rising, single point]"
CCOC(=O)c1c(S(=O)(=O)NCC(=O)NCc2ccccc2Cl)c(C)n(C)c1C,"5.62 µM [rising, single point]",–
CCOC(=O)CC1COc2ccccc2N1C(=O)c1ccc(F)cc1 (stereo unspecified),"2.51 µM [rising, partial curve, poor fit]",–
CCOC(=O)c1sc(=S)n(-c2cc(F)ccc2F)c1N,"3.16 µM [falling, single point]",–
O=C(Nc1ccc2c(c1)CCC2)c1cnn2c1NC(c1ccco1)CC2C(F)(F)F (stereo unspecified),–,"5.62 µM [rising, single point]"
CSc1nc2nc(-c3cccc(C(F)(F)F)c3)ccn2n1,–,"0.00282 µM [falling, full curve, poor fit]"
O=C(N/N=C\C=C\c1ccc2c(c1)OCO2)c1cccnc1,–,"10 µM [rising, partial curve, poor fit]"
Cc1sc2nc(CN(Cc3cccs3)C(=O)C3CC3)[nH]c(=O)c2c1C,–,"20 µM [rising, single point]"
CCCc1ccc(Oc2cn[nH]c2-c2ccc(O)c(C)c2O)cc1,–,"25.1 µM [rising, partial curve]"
O=C1C(C=Nc2ccccc2O)=C(O)c2ccccc21,"14.1 µM [rising, single point]","31.6 µM [rising, single point]"
COCC(C)n1c(C)cc(C(=O)COC(=O)c2n[nH]c3ccccc23)c1C (stereo unspecified),–,"5.01 µM [rising, full curve, poor fit]"
Oc1ccc(/C=N/Nc2ncnc3c2ncn3Cc2ccccc2)cc1O,"10 µM [rising, partial curve]","14.1 µM [rising, partial curve]"
Cc1ccc(C)c(S(=O)(=O)NCc2ccc(C(=O)N3CCCCCC3)cc2)c1,–,"35.5 µM [rising, single point]"
CCOc1ccc(Br)cc1S(=O)(=O)Nc1cccc(S(=O)(=O)N(CC)CC)c1,"11.2 µM [rising, single point]","28.2 µM [rising, single point]"
CCC(Sc1ncccc1C(=O)Oc1ccccc1Cl)C(=O)Nc1ccccc1OC (stereo unspecified),–,"15.8 µM [rising, single point]"
Oc1c(C=C2N=c3ccccc3=N2)sc(=S)n1C1CCCCC1,–,"0.00398 µM [falling, full curve, poor fit]"
Cc1ccc(-n2c(O)c(C=NCc3ccccn3)c3ccccc3c2=O)cc1C,–,"14.1 µM [rising, partial curve]"
Cc1csc(NC(=O)c2cccc(S(=O)(=O)N3CCN(C)CC3)c2)n1,"1.58 µM [falling, full curve, poor fit]",–
CCOC(=O)c1cc(NC(=O)NCc2ccco2)c(C)nc1C,"10 µM [rising, partial curve, poor fit]",–
c1ccc(Cc2noc(CN3CCCN(C4Cc5ccccc5C4)CC3)n2)cc1,"22.4 µM [falling, partial curve, poor fit]","0.2 µM [falling, full curve, poor fit]"
O=C(Nc1ccc([N+](=O)[O-])cc1)C1(c2ccccc2)CCOCC1,"0.0224 µM [rising, full curve, poor fit]",–
Cc1cc(C)c2nc(C(F)(F)F)c(C#N)c(N)c2c1,"35.5 µM [rising, single point]",–
COCCOC(=O)C1=C(C)NC(C)=C(C(=O)OC(C)C)[C@H]1c1cccc([N+](=O)[O-])c1,"0.1 µM [falling, full curve]","0.1 µM [falling, full curve]"
Cc1ccc(-c2nnc(SCC(=O)N3CC(C)CC(C)C3)o2)cc1C (stereo unspecified),"11.2 µM [rising, partial curve]","17.8 µM [rising, partial curve]"
c1nc(N2CCCCCC2)c2[nH]cnc2n1,–,"14.1 µM [rising, single point]"
Cc1oc2ccc(NS(=O)(=O)c3cccc4cccnc34)cc2c1C(=O)OC(C)C,–,"17.8 µM [rising, single point]"
CCOC(=O)N1CCN(C(=O)CN(Cc2ccccc2)S(=O)(=O)c2ccc(OC)c(C)c2)CC1,–,"35.5 µM [rising, single point]"
COc1ccc(NC(=O)Cn2cc(C(=O)c3ccncc3)c(=O)c3cc(C)ccc32)cc1Cl,"0.158 µM [falling, full curve, poor fit]","11.2 µM [falling, partial curve, poor fit]"

# Molecules from the list above that have fluorine:
SMILES,AC50 [1],AC50 [2]
CCOC(=O)CC1COc2ccccc2N1C(=O)c1ccc(F)cc1 (stereo unspecified),"2.51 µM [rising, partial curve, poor fit]",–
CCOC(=O)c1sc(=S)n(-c2cc(F)ccc2F)c1N,"3.16 µM [falling, single point]",–
O=C(Nc1ccc2c(c1)CCC2)c1cnn2c1NC(c1ccco1)CC2C(F)(F)F (stereo unspecified),–,"5.62 µM [rising, single point]"
CSc1nc2nc(-c3cccc(C(F)(F)F)c3)ccn2n1,–,"0.00282 µM [falling, full curve, poor fit]"
Cc1cc(C)c2nc(C(F)(F)F)c(C#N)c(N)c2c1,"35.5 µM [rising, single point]",–

# Reference: PubChem BioAssay AID1487 (National Center for Advancing Translational Sciences (NCATS), 2009)
